Laboratory results as given in article PMC8213057, “Targeting ALK2: An Open Science Approach to Developing Therapeutics for the Treatment of Diffuse Intrinsic Pontine Glioma” (Journal of Medicinal Chemistry, 2020).

By UniProt entry, the sequences of proteins in these tests, tags left out. Where a name states a change or a piece, a line headed by the entry shows the natural chain unless it says otherwise.
UniProt Q8WXR4: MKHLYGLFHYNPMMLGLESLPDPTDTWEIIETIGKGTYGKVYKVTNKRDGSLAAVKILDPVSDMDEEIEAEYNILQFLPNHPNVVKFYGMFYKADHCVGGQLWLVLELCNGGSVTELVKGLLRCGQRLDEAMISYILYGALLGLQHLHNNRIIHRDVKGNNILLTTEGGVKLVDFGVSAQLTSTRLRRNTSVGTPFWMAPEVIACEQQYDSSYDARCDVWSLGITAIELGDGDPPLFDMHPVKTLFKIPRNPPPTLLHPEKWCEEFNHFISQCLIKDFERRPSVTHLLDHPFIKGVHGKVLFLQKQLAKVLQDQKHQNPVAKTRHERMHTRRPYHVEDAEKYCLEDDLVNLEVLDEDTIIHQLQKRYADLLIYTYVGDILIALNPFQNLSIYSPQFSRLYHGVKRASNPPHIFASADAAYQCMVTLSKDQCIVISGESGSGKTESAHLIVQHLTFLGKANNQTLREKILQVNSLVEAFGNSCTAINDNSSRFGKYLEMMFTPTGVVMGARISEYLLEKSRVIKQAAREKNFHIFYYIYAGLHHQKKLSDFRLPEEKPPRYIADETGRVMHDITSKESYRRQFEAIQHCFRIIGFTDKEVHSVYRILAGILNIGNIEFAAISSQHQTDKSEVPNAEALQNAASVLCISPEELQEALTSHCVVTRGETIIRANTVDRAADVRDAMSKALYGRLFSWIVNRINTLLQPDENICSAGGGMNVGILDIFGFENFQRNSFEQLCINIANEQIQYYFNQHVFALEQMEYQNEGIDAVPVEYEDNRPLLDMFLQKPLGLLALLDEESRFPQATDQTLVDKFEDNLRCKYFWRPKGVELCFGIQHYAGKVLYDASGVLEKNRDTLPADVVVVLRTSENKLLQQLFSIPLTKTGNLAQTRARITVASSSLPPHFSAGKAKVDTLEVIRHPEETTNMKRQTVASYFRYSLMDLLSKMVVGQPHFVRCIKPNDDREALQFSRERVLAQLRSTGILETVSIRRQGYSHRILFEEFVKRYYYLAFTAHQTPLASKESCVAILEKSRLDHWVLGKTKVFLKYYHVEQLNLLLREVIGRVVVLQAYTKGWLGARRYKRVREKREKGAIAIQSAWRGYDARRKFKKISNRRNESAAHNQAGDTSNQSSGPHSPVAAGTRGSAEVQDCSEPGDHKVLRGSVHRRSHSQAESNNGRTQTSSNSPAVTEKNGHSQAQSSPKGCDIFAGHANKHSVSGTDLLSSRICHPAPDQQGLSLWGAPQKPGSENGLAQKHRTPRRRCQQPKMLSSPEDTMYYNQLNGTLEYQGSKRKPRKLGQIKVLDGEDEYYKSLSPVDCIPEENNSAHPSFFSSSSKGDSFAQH
UniProt Q9H4A3, whole entry, species assumed: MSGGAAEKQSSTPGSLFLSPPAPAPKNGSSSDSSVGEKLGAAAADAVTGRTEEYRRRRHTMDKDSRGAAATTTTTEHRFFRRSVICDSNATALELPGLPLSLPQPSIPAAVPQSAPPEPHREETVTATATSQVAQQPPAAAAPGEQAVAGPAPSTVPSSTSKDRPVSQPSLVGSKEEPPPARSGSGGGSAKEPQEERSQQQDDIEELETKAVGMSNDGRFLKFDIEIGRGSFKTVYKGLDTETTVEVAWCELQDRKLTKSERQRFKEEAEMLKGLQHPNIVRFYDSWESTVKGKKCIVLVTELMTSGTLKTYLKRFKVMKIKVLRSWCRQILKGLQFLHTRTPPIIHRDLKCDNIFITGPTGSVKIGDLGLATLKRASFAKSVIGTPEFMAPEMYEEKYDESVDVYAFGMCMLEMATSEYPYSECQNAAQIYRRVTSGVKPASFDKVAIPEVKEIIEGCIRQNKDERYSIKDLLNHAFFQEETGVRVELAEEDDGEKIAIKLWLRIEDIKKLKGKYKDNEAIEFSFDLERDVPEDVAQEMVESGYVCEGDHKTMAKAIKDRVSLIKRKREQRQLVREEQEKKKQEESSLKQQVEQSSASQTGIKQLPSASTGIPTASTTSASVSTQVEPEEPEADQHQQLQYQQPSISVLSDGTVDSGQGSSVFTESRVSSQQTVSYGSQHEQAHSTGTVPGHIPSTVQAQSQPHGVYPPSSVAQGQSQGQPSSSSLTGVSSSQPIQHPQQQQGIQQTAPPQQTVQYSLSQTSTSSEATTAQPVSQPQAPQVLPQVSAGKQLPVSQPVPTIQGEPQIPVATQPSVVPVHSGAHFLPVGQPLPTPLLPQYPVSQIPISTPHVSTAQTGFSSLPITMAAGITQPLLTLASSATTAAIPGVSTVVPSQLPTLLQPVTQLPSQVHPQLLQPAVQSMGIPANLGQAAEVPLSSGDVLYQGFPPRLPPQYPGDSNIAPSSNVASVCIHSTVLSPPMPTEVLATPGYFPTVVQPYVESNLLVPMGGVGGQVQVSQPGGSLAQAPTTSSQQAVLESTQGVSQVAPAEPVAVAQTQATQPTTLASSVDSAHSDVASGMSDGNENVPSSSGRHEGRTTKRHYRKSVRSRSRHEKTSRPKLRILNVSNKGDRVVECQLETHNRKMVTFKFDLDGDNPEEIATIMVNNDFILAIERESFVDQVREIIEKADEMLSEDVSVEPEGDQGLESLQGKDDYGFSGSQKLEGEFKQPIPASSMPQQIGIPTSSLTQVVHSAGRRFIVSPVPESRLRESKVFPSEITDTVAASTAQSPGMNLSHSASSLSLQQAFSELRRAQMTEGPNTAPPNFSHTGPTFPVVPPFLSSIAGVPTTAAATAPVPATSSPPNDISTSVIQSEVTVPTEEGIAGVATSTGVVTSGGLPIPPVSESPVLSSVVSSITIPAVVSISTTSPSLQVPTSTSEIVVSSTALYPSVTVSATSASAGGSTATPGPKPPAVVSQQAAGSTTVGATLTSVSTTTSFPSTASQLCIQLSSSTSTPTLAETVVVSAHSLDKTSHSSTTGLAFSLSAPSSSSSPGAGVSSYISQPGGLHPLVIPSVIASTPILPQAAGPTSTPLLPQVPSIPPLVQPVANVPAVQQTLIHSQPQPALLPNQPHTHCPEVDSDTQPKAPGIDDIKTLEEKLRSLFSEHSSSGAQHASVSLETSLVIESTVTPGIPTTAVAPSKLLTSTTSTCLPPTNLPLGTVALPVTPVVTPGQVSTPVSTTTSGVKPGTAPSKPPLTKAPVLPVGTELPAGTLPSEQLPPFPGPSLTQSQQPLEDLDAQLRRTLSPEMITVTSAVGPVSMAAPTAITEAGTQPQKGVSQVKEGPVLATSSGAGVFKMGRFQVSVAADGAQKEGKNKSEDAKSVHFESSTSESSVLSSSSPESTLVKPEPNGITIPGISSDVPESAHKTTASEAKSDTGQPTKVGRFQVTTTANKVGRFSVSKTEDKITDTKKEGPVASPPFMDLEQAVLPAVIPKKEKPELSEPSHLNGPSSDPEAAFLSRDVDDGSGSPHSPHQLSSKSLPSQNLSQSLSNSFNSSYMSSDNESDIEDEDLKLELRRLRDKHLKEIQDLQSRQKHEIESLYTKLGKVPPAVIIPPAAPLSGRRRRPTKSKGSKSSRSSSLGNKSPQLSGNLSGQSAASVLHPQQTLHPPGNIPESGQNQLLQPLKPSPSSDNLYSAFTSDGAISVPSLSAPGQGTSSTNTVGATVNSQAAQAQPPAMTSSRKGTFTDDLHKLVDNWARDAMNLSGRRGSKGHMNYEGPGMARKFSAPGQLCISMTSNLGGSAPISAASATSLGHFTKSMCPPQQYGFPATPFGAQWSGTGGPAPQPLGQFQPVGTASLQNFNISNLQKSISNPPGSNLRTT
UniProt Q9NRM7: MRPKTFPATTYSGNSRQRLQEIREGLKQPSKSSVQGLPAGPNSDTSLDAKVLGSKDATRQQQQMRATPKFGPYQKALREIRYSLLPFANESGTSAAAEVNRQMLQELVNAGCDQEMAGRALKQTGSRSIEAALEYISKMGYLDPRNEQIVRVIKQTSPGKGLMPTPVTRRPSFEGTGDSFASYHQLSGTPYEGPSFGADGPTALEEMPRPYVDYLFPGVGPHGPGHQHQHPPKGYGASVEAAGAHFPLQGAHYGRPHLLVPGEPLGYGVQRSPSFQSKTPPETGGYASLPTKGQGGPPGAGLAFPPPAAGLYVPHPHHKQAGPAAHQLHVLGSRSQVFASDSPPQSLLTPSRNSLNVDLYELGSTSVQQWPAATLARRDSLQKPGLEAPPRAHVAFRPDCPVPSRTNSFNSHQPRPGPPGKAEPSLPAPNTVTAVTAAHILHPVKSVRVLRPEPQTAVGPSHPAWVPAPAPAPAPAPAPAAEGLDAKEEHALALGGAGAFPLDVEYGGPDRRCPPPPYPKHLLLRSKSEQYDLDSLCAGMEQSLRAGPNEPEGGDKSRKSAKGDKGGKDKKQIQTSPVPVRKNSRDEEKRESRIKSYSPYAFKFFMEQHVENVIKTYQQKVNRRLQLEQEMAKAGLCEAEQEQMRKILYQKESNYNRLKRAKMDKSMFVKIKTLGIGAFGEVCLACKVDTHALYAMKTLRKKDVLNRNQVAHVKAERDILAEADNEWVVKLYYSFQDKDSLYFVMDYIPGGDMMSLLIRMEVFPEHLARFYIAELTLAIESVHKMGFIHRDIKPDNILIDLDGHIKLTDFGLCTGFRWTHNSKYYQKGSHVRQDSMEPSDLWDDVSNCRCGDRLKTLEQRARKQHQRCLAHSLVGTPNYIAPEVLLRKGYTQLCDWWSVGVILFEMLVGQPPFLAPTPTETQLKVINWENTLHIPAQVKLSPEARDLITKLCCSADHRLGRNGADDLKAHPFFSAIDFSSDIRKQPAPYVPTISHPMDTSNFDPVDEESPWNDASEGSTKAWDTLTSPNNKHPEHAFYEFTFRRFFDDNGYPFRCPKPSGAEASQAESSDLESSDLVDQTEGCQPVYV
UniProt O00141: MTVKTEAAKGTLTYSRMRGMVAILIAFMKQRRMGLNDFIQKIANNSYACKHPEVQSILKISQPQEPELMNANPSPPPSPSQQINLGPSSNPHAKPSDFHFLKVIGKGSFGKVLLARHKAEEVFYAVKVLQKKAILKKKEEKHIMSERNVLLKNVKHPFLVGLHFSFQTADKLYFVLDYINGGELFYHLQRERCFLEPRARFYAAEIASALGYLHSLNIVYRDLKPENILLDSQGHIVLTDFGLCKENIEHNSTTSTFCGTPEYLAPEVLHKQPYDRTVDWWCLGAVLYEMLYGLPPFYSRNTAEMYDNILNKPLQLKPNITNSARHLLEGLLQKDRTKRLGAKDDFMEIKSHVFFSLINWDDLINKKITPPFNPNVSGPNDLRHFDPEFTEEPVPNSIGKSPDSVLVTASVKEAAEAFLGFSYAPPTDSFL
UniProt P42684, whole entry: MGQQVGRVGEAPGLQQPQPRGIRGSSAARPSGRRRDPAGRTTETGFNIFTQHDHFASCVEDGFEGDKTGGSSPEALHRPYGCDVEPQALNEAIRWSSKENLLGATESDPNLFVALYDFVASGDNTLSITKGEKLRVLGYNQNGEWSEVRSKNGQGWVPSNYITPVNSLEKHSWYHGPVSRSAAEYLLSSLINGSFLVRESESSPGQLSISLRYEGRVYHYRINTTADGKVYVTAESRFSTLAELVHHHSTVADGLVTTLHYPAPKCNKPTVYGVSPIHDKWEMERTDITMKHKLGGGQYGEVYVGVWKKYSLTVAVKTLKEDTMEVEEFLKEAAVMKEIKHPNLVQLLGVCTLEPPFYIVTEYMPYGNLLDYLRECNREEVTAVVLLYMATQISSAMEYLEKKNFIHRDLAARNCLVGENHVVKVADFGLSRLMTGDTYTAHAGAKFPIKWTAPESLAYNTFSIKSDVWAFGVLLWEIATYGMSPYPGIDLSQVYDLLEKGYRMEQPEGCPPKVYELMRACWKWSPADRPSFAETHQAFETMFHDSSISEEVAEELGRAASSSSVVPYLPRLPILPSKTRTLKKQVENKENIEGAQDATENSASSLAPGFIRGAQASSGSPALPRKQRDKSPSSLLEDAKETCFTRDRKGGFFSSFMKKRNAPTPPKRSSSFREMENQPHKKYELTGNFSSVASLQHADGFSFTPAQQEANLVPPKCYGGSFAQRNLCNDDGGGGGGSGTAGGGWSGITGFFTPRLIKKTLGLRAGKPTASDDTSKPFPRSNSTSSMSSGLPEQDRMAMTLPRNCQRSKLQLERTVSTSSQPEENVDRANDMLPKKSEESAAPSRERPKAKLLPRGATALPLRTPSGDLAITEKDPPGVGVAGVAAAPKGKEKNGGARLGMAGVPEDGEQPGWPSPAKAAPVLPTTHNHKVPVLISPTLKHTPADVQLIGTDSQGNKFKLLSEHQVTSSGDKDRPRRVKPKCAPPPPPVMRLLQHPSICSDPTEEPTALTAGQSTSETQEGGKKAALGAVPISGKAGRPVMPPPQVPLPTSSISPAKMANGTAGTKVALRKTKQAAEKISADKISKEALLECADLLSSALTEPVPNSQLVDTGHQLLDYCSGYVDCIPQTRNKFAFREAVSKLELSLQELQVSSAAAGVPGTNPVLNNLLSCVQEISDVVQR

Assays:
DLK/MAP3K12 [1] = target: T1, DLK/MAP3K12 (Homo sapiens, UniProt Q12852); test: biochemical; conditions: read-out: % enzyme activity, 1 μM; Run 1, Run 2
SRMS = SRMS (Homo sapiens, UniProt Q9H3Y6); test: biochemical; conditions: read-out: % enzyme activity, 1 μM; Run 1, Run 2
MYLK3 = MYLK3 (Homo sapiens, UniProt Q32MK0); conditions: 1 μM; Run 1, Run 2
MSK2/RPS6KA4 = MSK2/RPS6KA4 (Homo sapiens, UniProt O75676); conditions: 1 μM; Run 1, Run 2
MYO3b = MYO3b (Homo sapiens, UniProt Q8WXR4); test: biochemical; conditions: read-out: % enzyme activity, 1 μM; Run 1, Run 2
DYRK3 = DYRK3 (Homo sapiens, UniProt O43781); test: biochemical; conditions: read-out: % enzyme activity, 1 μM; Run 1, Run 2
MARK1 = MARK1 (Homo sapiens, UniProt Q9P0L2); test: biochemical; conditions: read-out: % enzyme activity, 1 μM; Run 1, Run 2
DAPK1 [2] = target: T2, DAPK1 (Homo sapiens, UniProt P53355); test: biochemical; conditions: read-out: % enzyme activity, 1 μM; Run 1, Run 2
NEK4 = NEK4 (Homo sapiens, UniProt P51957); conditions: 1 μM; Run 1, Run 2
EPHB3 = EPHB3 (Homo sapiens, UniProt P54753); test: biochemical; conditions: read-out: % enzyme activity, 1 μM; Run 1, Run 2
EPHA2 = EPHA2 (Homo sapiens, UniProt P29317); test: biochemical; conditions: read-out: % enzyme activity, 1 μM; Run 1, Run 2
WNK1 = WNK1 (Homo sapiens, UniProt Q9H4A3); test: biochemical; conditions: read-out: % enzyme activity, 1 μM; Run 1, Run 2
DLK/MAP3K12 [3] = target: T1, DLK/MAP3K12; conditions: 1 μM; Run 1, Run 2
DRAK1/STK17A = DRAK1/STK17A (Homo sapiens, UniProt Q9UEE5); conditions: 1 μM; Run 1, Run 2
YES/YES1 = YES/YES1 (Homo sapiens, UniProt P07947); test: biochemical; conditions: read-out: % enzyme activity, 1 μM; Run 1, Run 2
PAK2 = PAK2 (Homo sapiens, UniProt Q13177); conditions: 1 μM; Run 1, Run 2
SYK = SYK (Homo sapiens, UniProt P43405); test: biochemical; conditions: read-out: % enzyme activity, 1 μM; Run 1, Run 2
ALK = ALK (Homo sapiens, UniProt Q9UM73); test: biochemical; conditions: read-out: % enzyme activity, 1 μM; Run 1, Run 2
ROCK1 = ROCK1 (Homo sapiens, UniProt Q13464); test: biochemical; conditions: read-out: % enzyme activity, 1 μM; Run 1, Run 2
ZAP70 = ZAP70 (Homo sapiens, UniProt P43403); test: biochemical; conditions: read-out: % enzyme activity, 1 μM; Run 1, Run 2
MARK3 = MARK3 (Homo sapiens, UniProt P27448); conditions: 1 μM; Run 1, Run 2
MEKK1 = MEKK1 (Homo sapiens, UniProt Q13233); test: biochemical; conditions: read-out: % enzyme activity, 1 μM; Run 1, Run 2
LATS2 = LATS2 (Homo sapiens, UniProt Q9NRM7); conditions: 1 μM; Run 1, Run 2
STK38L/NDR2 = STK38L/NDR2 (Homo sapiens, UniProt Q9Y2H1); test: biochemical; conditions: read-out: % enzyme activity, 1 μM; Run 1, Run 2
PIM1 = PIM1 (Homo sapiens, UniProt P11309); conditions: 1 μM; Run 1, Run 2
BMX/ETK = BMX/ETK (Homo sapiens, UniProt P51813); test: biochemical; conditions: read-out: % enzyme activity, 1 μM; Run 1, Run 2
ZIPK/DAPK3 = ZIPK/DAPK3 (Homo sapiens, UniProt O43293); conditions: 1 μM; Run 1, Run 2
DAPK1 [4] = target: T2, DAPK1; conditions: 1 μM; Run 1, Run 2
GRK7 = GRK7 (Homo sapiens, UniProt Q8WTQ7); conditions: 1 μM; Run 1, Run 2
RIPK2 = RIPK2 (Homo sapiens, UniProt O43353); conditions: 1 μM; Run 1, Run 2
SGK1 = SGK1 (Homo sapiens, UniProt O00141); test: biochemical; conditions: read-out: % enzyme activity, 1 μM; Run 1, Run 2
FES/FPS = FES/FPS (Homo sapiens, UniProt P07332); conditions: 1 μM; Run 1, Run 2
JAK1 = JAK1 (Homo sapiens, UniProt P23458); conditions: 1 μM; Run 1, Run 2
LCK2/ICK = LCK2/ICK (Homo sapiens, UniProt Q9UPZ9); conditions: 1 μM; Run 1, Run 2
BRK = BRK (Homo sapiens, UniProt Q13882); conditions: 1 μM; Run 1, Run 2
STK33 = STK33 (Homo sapiens, UniProt Q9BYT3); conditions: 1 μM; Run 1, Run 2
TRKB = TRKB (Homo sapiens, UniProt Q16620); test: biochemical; conditions: read-out: % enzyme activity, 1 μM; Run 1, Run 2
ACK1 = ACK1 (Homo sapiens, UniProt Q07912); test: biochemical; conditions: read-out: % enzyme activity, 1 μM; Run 1, Run 2
ABL2/ARG = ABL2/ARG (Homo sapiens, UniProt P42684); conditions: 1 μM; Run 1, Run 2
p70S6Kb/RPS6KB2 = p70S6Kb/RPS6KB2 (Homo sapiens, UniProt Q9UBS0); conditions: 1 μM; Run 1, Run 2
DDR2 = DDR2 (Homo sapiens, UniProt Q16832); test: biochemical; conditions: read-out: % enzyme activity, 1 μM; Run 1, Run 2
PKG1b = PKG1b (Homo sapiens, UniProt Q13976); test: biochemical; conditions: read-out: % enzyme activity, 1 μM; Run 1, Run 2
RON/MST1R = RON/MST1R (Homo sapiens, UniProt Q04912); test: biochemical; conditions: read-out: % enzyme activity, 1 μM; Run 1, Run 2

SMILES: COc1cc(-c2cncc(-c3ccc(N4CCN(C(C)C)CC4)cc3)c2C)cc(F)c1C(N)=O [Compound 26b, 2-Fluoro-4-(5-(4-(4-isopropylpiperazin-1-yl)phenyl)-4-methylpyridin-3-yl)-6-methoxybenzamide]
- remaining activity at 1 µM (DLK/MAP3K12 [1]): 94.5%
- remaining activity at 1 µM (SRMS): 98.8%
- % enzyme activity (MYLK3): 101.18%
- % enzyme activity (MSK2/RPS6KA4): 95.45%
- remaining activity at 1 µM (MYO3b): 85%
- remaining activity at 1 µM (DYRK3): 93.4%
- remaining activity at 1 µM (MARK1): 92.5%
- remaining activity at 1 µM (DAPK1 [2]): 98.5%
- % enzyme activity (NEK4): 99.62%
- remaining activity at 1 µM (EPHB3): 94.8%
- remaining activity at 1 µM (EPHA2): 102%
- remaining activity at 1 µM (WNK1): 102%
- % enzyme activity (DLK/MAP3K12 [3]): 94.38%
- % enzyme activity (DRAK1/STK17A): 96.54%
- remaining activity at 1 µM (YES/YES1): 100%
- % enzyme activity (PAK2): 104.17%
- remaining activity at 1 µM (SYK): 105%
- remaining activity at 1 µM (ALK): 103%
- remaining activity at 1 µM (ROCK1): 97%
- remaining activity at 1 µM (ZAP70): 99.6%
- % enzyme activity (MARK3): 91.46%
- remaining activity at 1 µM (MEKK1): 89.4%
- % enzyme activity (LATS2): 109.35%
- remaining activity at 1 µM (STK38L/NDR2): 95.3%
- % enzyme activity (PIM1): 103.63%
- remaining activity at 1 µM (BMX/ETK): 103%
- % enzyme activity (ZIPK/DAPK3): 105.01%
- % enzyme activity (DAPK1 [4]): 98.30%
- % enzyme activity (GRK7): 100.06%
- % enzyme activity (RIPK2): 79.92%
- remaining activity at 1 µM (SGK1): 91.1%
- % enzyme activity (FES/FPS): 96.09%
- % enzyme activity (JAK1): 96.26%
- % enzyme activity (LCK2/ICK): 86.13%
- % enzyme activity (BRK): 64.33%
- % enzyme activity (STK33): 96.42%
- remaining activity at 1 µM (TRKB): 109%
- remaining activity at 1 µM (ACK1): 66.8%
- % enzyme activity (ABL2/ARG): 98.48%
- % enzyme activity (p70S6Kb/RPS6KB2): 98.03%
- remaining activity at 1 µM (DDR2): 92.6%
- remaining activity at 1 µM (PKG1b): 99.5%
- remaining activity at 1 µM (RON/MST1R): 114%
